The experiment concerns the target T1, HA∷G6^7TM (mouse) (UniProt Q6F3F9).
T1 sequence: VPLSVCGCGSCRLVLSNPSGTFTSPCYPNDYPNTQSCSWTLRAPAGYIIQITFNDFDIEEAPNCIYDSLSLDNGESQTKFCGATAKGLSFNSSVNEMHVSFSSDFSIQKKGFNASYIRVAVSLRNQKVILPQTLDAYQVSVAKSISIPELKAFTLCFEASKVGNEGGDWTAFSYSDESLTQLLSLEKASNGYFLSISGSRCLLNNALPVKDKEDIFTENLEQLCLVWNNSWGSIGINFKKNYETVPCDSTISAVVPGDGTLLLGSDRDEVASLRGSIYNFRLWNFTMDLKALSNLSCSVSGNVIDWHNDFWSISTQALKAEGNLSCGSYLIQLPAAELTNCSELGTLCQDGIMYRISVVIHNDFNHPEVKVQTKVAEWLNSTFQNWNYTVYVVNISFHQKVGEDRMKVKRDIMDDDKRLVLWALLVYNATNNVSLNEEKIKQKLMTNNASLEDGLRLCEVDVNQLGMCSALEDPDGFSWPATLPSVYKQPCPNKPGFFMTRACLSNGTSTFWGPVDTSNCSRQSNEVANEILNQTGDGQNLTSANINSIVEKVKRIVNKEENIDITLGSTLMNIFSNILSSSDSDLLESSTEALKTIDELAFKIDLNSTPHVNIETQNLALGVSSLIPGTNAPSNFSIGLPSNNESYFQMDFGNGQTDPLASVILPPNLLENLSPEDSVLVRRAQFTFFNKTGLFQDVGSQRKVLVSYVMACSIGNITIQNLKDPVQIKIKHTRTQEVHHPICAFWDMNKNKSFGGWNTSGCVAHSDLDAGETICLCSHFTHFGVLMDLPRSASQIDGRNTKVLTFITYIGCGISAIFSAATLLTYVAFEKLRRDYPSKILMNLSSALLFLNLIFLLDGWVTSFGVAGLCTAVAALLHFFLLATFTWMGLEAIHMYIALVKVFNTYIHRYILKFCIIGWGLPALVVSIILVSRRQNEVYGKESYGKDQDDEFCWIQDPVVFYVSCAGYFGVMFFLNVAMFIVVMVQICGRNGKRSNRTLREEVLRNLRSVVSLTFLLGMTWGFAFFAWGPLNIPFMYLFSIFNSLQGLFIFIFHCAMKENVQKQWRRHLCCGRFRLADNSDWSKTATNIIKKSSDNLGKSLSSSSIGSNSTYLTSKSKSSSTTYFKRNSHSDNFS
Put plainly: co-IP.

The values that follow come from doi:10.1101/2023.01.11.521585.

Results are given in words; binding and its absence hold for the method and conditions named. In cells and extracts the contact can be indirect. Binding can be weak; no strength is given. Where a sequence is shown, tags or fusion partners need not be part of it.

In the case of G6^1TM∷V5 (mouse), the binding result is “binds”.
